Among the data in article PMC7937953 are binding values, retold here.

Sequences of proteins named here, by UniProt entry; tags and fusion partners are left off.
UniProt Q12929: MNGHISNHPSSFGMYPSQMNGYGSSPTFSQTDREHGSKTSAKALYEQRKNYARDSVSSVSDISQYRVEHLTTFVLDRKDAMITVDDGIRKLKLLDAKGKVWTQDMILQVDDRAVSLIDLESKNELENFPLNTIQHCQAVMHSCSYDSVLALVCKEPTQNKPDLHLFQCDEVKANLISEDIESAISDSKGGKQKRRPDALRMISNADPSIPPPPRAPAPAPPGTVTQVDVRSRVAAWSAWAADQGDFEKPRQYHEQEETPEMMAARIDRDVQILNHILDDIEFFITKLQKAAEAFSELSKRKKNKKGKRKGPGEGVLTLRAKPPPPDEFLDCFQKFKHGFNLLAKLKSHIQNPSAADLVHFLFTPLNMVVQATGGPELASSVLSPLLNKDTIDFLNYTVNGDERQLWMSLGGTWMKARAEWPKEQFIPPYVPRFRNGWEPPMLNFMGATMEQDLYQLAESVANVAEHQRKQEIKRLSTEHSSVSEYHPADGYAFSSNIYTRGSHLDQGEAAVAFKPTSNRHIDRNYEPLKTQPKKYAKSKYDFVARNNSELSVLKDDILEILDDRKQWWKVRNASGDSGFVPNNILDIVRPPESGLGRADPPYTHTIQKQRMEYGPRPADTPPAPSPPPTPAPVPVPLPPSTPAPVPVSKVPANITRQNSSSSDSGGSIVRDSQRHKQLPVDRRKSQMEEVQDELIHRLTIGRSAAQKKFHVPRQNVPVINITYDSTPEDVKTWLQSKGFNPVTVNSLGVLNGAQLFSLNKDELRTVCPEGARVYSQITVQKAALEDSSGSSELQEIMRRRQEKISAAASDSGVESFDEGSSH

Test [1] deals with T1, GST-fused MLK3 (632–847 aa) (human) (UniProt Q16584).
T1 sequence: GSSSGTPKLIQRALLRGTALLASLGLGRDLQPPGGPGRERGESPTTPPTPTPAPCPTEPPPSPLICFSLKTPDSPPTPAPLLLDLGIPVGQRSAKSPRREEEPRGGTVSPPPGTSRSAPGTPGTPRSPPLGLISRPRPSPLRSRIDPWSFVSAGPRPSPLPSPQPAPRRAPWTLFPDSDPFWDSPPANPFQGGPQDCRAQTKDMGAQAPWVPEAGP
Briefly: pull-down; purified GST-fused MLK3 segments on beads incubated with lysates of pcDNA3.1-EPS8-transfected HEK293 cells, 2 h at 4°C; immunoblot; only the target purified.

Test [2] addresses T2, GST-fused MLK3 (1–104 aa) (human) (UniProt Q16584).
T2 sequence: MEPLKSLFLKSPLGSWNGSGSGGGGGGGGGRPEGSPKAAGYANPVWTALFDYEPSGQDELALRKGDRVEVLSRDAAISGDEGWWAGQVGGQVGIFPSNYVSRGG
The description is as above.

Test [3] addresses Myc-MLK3 (mixed lineage kinase 3), overexpressed in U251 cells (human) (UniProt Q16584). Nature of the test: co-IP; U251 cells co-transfected with pcDNA3.1-Myc-MLK3 and pcDNA3.1-His-EPS8 for 24 h; lysates immunoprecipitated with anti-Myc or control IgG; EPS8 detected by immunoblot. In general terms: A western blot detects proteins with antibodies after separation by electrophoresis.

Test [4] addresses endogenous EPS8 in U251 cells (human (endogenous in U251)) (UniProt Q12929). Briefly: co-IP; endogenous proteins in U251 cells; lysates immunoprecipitated with anti-EPS8 or control IgG; MLK3 detected by immunoblot.

These are yes or no findings as the source states them, for the method shown. In cells and extracts the contact can be indirect. Some entries that bind do so weakly or less than the wild type. For some of these results: Sequences can lack the tags named with a protein.

In the case of “EPS8 expressed in HEK293 cells (pcDNA3.1-EPS8) (from UniProt Q12929 1-822)”, the binding entry in test [1] and in test [2] was “binds” throughout.

Take “His-EPS8 (epidermal growth factor receptor kinase substrate 8), overexpressed in U251 cells (from UniProt Q12929 1-822)”: the binding entry in test [3] is “binds”.

As for “endogenous MLK3 in U251 cells (from UniProt Q16584 1-847)”, the binding entry in test [4] is “binds”.
